Test results taken from publication PMC12393827.
Results are given in words; binding and its absence hold for the method and conditions named. Binding seen in cells or lysates may run through a third protein. Some results given as binding are weak or reduced against the parent protein; the word gives no strength.

Protein sequences, listed by entry. Tags and fused reporters are not part of them.
UniProt Q13136: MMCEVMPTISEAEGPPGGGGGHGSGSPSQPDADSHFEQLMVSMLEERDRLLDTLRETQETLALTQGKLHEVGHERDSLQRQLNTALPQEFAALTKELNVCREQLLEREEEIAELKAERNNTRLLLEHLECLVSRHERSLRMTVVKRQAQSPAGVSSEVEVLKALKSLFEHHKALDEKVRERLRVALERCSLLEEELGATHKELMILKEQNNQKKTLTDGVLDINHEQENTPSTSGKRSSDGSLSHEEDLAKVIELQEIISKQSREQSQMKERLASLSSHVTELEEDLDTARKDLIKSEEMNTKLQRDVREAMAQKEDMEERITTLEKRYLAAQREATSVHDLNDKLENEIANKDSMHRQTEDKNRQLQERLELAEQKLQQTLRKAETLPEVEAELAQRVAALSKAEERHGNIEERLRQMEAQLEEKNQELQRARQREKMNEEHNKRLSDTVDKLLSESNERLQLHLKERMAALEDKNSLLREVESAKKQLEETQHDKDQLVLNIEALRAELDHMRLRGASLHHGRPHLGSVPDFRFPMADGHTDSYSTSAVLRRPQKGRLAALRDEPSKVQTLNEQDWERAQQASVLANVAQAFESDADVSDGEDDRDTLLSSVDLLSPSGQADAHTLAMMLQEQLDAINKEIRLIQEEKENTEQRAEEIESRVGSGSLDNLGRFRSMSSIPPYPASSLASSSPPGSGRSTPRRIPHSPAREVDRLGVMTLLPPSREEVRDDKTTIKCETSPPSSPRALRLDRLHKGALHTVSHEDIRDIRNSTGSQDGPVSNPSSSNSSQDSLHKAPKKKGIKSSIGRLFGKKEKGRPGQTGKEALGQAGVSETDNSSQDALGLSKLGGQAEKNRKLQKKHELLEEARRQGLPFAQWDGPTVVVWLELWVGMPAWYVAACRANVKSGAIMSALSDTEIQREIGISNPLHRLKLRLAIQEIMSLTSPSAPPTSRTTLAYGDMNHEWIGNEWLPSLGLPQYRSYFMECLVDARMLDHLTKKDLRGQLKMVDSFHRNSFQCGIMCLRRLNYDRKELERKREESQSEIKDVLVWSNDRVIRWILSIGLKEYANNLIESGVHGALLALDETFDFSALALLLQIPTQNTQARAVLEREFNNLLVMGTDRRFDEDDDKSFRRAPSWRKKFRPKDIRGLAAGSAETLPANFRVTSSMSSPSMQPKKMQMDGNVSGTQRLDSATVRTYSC
UniProt B2RXQ2: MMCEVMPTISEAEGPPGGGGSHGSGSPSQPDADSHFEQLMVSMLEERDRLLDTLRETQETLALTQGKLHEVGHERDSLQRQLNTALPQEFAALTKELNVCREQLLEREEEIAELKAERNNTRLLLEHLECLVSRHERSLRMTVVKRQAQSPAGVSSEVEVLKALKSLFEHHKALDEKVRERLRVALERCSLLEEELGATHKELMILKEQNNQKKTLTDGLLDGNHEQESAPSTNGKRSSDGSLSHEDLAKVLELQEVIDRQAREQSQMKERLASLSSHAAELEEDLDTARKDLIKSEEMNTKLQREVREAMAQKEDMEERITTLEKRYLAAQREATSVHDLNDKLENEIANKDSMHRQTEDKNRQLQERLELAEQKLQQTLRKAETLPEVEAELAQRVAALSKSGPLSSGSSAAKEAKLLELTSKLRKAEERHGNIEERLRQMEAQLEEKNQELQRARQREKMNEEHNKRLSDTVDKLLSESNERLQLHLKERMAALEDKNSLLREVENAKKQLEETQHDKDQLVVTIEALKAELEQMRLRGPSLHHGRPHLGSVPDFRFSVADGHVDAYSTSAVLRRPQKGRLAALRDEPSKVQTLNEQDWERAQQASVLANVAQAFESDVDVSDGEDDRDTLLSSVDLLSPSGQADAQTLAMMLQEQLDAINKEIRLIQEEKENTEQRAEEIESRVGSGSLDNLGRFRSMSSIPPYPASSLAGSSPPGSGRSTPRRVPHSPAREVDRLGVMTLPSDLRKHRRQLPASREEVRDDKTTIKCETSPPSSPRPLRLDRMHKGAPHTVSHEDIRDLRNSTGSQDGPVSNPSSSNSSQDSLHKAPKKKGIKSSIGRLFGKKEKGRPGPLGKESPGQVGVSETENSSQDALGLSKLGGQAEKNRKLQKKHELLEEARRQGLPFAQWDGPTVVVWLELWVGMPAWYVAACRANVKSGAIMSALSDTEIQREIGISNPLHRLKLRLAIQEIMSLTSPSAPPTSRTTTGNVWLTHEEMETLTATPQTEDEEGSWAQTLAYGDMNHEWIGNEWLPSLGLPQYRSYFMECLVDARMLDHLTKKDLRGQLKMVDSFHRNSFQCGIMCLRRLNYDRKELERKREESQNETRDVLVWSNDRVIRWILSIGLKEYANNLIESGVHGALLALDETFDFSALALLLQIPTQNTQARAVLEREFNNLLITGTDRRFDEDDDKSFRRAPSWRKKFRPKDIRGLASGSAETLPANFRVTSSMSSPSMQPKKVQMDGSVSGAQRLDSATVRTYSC

B1: liprin-β1 (protein, UniProt Q8C8U0 1-969)
chain: MMSDASDMLAAALEQMDGIIAGSKALEYSNGIFDCQSPTSPFMGSLRALHLVEDLRGLLEMMETDEKEGLRCQIPDSTAEVLIEWLQNQMTNGHLPGNGDVYQERLARLENDKESLVLQVSVLTDQVEAQGEKIRDLEFCLEEHREKLNATEEMLQQELLSRTSLETQKLELMAEISNLKLKLTAVEKDRLDYEDRFRDTEGLIQEINDLRLKVNEMDGERLQYEKKLKSTKDELASLKEQLEEKECEVKRLQERLVCKAKGEGIEVLDRDIEVQKMKKAVESLMAANEEKERKIEDLRQCLSRYRKMQDPAVLAQGQDSECEGLFHSSSISTLLDAQGFSDLERSTSSTPGMGSPSRDLLHTSAPEEFHTSVLQASIPSLLPPSVDVDTCEKPKLPTKPETSFEEGDGRAILGAAAEVSLSDGVSTSSLQKSSSLGNLKKEASDGTDKAPTDSRTFGTLPPKVPGHEASVDDNPFGTRKARSSFGRGFFKIKSGKRTASAPNLAETEKETAEHLNLAGTSRSKGSQGTSPFPMSPPSPDSRKKSRGIMRLFGKLRRSQSTTFNPDDMSEPEFKRGGTRATAGPRLGWSRDLGQSNSDLDMPFAKWTKEQVCSWLAEQGLGSYLSSGKHWIISGQTLLQASQQDLEKELGIKHSLHRKKLQLALQALGSEEETNYGKLDFNWVTRWLDDIGLPQYKTQFDEGRVDGRMLHYMTVDDLLSLKVVSVLHHLSIKRAIQVLRINNFEPNCLRRRPSDENSITPSEVQQWTNHRVMEWLRSVDLAEYAPNLRGSGVHGGLMVLEPRFNVETMAQLLNIPPNKTLLRRHLATHFNLLIGAEAQHQKRDAMELPDYVLLTATAKVKPKKLTFSNFGNLRKKKHEDGEEYVCPMELGQASGSSQKGFRPGLDMRLYEEDDLDRLEQMEDSEGTVRQIGAFSEGINNLTHMLKEDDMFKDFAARSPSASITDEDSNV

Columns and labels:
[1] = target: GFP–liprin-α1 (not stated (human or mouse cDNA cloned)) (UniProt Q13136); experiment: co-IP; lysates of MIN6 cells overexpressing GFP–liprin-α1 or GFP (control); anti-GFP nanobody beads (GFP-Trap); immunoprecipitates analysed by immunoblotting
[2] = target: endogenous liprin-α1 (mouse (endogenous in MIN6)) (UniProt B2RXQ2); experiment: co-IP; uninfected MIN6 cells, 16.7 mM glucose 2 h; clarified lysates (4 mg per IP) with 10 μg anti–liprin-α1, anti–β2-syntrophin or control IgG overnight at 4°C, protein A/G magnetic beads; immunoblotting

| binding [1] | binding [2] | Molecule |
| --- | --- | --- |
| binds |  | endogenous liprin-α1 (from UniProt B2RXQ2 1-1266) |
| binds | binds | B1 |
